Data as given in PubChem BioAssay AID1259405 (NCATS, 2018).

Purpose: 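Knock-downs that lift recombinant protein yield in hamster ovary cells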 (primary screen)
Cell system: Chinese hamster CHO-K1 ovary cells with stable secreted eGFP expression
Reagent: single siRNA against mouse genes, 0.8 pmol siRNA per well (2 µl of 400 nM stock)
Timing: 3 days
Detection: 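Percent of the per-plate non-targeting control median for intracellular GFP per well by laser scanning cytometry and for cell viability by ATP luminescence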
Scale: GFP, % of control: higher = more GFP per well, higher productivity; viability (ATP), % of control: higher = more viable cells (more ATP)
Rule for the call: 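a knock-down is called active if GFP reaches 120% or more of non-targeting control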
This is a random part of about 50,000 reagents. About 4,000 of all reagents (8%) were called active. 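Mouse siRNA library applied to hamster cells; one well for each siRNA.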 Reagents against one gene are numbered here.

For Snx10 #1, the values are GFP, % of control 140; viability (ATP), % of control 144; active.
Against Snx10 #2, the entry reads GFP, % of control 86.1; viability (ATP), % of control 61.9; inactive.
Against Plcxd3 #1, the values are GFP, % of control 170; viability (ATP), % of control 132; active.
After knock-down of Plcxd3 #2, the screen gave GFP, % of control 94.4; viability (ATP), % of control 66.3; inactive.
Plcxd3 #3 gave GFP, % of control 86.6; viability (ATP), % of control 79.5; inactive.
Silencing of Plcxd3 #4 gave: GFP, % of control 185; viability (ATP), % of control 75.2; active.
Depletion of Plcxd3 #5 resulted in: GFP, % of control 110; viability (ATP), % of control 78.1; inactive.
Against Plcxd3 #6, the entry reads GFP, % of control 74.5; viability (ATP), % of control 81; inactive.
With knock-down of Fcgrt #1, the screen gave GFP, % of control 139; viability (ATP), % of control 115; active.
Knock-down of Fcgrt #2 resulted in: GFP, % of control 136; viability (ATP), % of control 80.3; active.
Fcgrt #3 gave GFP, % of control 42.7; viability (ATP), % of control 47.4; inactive.
Depletion of Hypk #1 resulted in: GFP, % of control 110; viability (ATP), % of control 90.3; inactive.
For Hypk #2, the entry reads GFP, % of control 88.2; viability (ATP), % of control 74.3; inactive.
Against Hypk #3, the entry reads GFP, % of control 57.2; viability (ATP), % of control 61.6; inactive.
Selenbp2 #1 gave GFP, % of control 162; viability (ATP), % of control 101; active.
Against Selenbp2 #2 the deposit lists GFP, % of control 88.1; viability (ATP), % of control 58.5; inactive.
Depletion of Selenbp2 #3 gave: GFP, % of control 56.6; viability (ATP), % of control 70; inactive.
For 1700049L16Rik #1 the deposit lists GFP, % of control 85.1; viability (ATP), % of control 68.9; inactive.
1700049L16Rik #2 scored GFP, % of control 120; viability (ATP), % of control 73.8; inactive.
Silencing of 1700049L16Rik #3 resulted in: GFP, % of control 43.1; viability (ATP), % of control 58.8; inactive.
Casq1 #1 showed GFP, % of control 70; viability (ATP), % of control 68.4; inactive.
Casq1 #2 scored GFP, % of control 62.6; viability (ATP), % of control 72.9; inactive.
After knock-down of Lag3 #1, the record shows GFP, % of control 152; viability (ATP), % of control 64.9; active.
Silencing of Lag3 #2 came out at: GFP, % of control 46.3; viability (ATP), % of control 64.5; inactive.
After knock-down of Lag3 #3, the record shows GFP, % of control 74.6; viability (ATP), % of control 34.4; inactive.
Silencing of Sult1b1 #1 resulted in: GFP, % of control 116; viability (ATP), % of control 112; inactive.
Sult1b1 #2 gave GFP, % of control 78; viability (ATP), % of control 76.6; inactive.
Against Sult1b1 #3, the entry reads GFP, % of control 105; viability (ATP), % of control 98.1; inactive.
Against Ly6g5c #1, the values are GFP, % of control 116; viability (ATP), % of control 74.7; inactive.
Depletion of Ly6g5c #2 resulted in: GFP, % of control 80; viability (ATP), % of control 35.5; inactive.
Silencing of Ly6g5c #3 resulted in: GFP, % of control 83.3; viability (ATP), % of control 49.9; inactive.
Atf3 #1 gave GFP, % of control 53.9; viability (ATP), % of control 73.9; inactive.
Against Atf3 #2, the values are GFP, % of control 98.6; viability (ATP), % of control 69.7; inactive.
Atf3 #3 showed GFP, % of control 84.7; viability (ATP), % of control 88.1; inactive.
With knock-down of Cdc45 #1 the results were GFP, % of control 92.8; viability (ATP), % of control 94.9; inactive.
After knock-down of Cdc45 #2 the results were GFP, % of control 67.5; viability (ATP), % of control 57.2; inactive.
For Cdc45 #3 the deposit lists GFP, % of control 56.5; viability (ATP), % of control 58.1; inactive.
Phf2 #1 showed GFP, % of control 67.6; viability (ATP), % of control 85.2; inactive.
After knock-down of Phf2 #2, the screen gave GFP, % of control 83.1; viability (ATP), % of control 86.4; inactive.
Knock-down of Phf2 #3 came out at: GFP, % of control 92.6; viability (ATP), % of control 114; inactive.

Look-ups from above.
Value of Fcgrt #1 under “viability (ATP), % of control”: 115
Selenbp2 #3, Call → inactive
Under “Call”, Ly6g5c #2 is entered as inactive
Atf3 #1, Call → inactive
